Test results taken from the supplement of paper PMC6411743.
± gives the standard deviation of the averaged measurements. The list shows a part of the results.

Experiments:
Assay in all cases: NP40-soluble protein abundance relative to vehicle (solubility fold change) (ratio); higher = more soluble protein in presence of GTP
CAMLG = molecular target: T1, CAMLG (UniProt P49069)
T1 sequence (whole entry): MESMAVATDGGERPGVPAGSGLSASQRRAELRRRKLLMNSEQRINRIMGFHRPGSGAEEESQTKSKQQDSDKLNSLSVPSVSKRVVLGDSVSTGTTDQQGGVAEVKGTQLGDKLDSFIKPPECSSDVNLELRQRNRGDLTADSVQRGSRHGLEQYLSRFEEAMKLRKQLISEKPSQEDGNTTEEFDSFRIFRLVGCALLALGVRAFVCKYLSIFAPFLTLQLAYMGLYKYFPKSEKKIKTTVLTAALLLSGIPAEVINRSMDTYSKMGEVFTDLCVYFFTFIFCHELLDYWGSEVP
In short: (§1)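 Values are fold changes against the detergent-processed vehicle, based on vsn-normalised intensities. Jurkat crude lysate was treated at eight concentrations from 0.1 to 10 mM (10 min at room temperature, then 3 min at 37 °C), solubilised with 0.8% NP40 and benzonase, ultracentrifuged and analysed by TMT-labelled LC-MS/MS over three independent experiments.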

GALNS = molecular target: T2, GALNS (UniProt P34059)
T2 sequence (whole entry): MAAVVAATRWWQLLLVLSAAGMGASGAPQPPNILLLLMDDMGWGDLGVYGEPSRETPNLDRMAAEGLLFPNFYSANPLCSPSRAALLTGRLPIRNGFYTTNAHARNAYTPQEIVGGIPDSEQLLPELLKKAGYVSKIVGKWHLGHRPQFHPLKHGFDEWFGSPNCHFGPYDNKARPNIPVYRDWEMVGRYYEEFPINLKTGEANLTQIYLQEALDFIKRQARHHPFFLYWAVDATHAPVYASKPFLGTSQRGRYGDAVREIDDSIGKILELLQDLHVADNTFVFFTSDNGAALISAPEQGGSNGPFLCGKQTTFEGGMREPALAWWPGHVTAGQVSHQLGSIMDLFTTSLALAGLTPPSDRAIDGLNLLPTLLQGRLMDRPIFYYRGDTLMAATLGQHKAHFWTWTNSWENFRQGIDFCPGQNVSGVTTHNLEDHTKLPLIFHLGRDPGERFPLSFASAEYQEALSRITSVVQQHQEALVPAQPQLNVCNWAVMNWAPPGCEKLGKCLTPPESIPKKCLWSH
In short: as §1

GLRX = molecular target: T3, GLRX (UniProt P35754)
T3 sequence (whole entry): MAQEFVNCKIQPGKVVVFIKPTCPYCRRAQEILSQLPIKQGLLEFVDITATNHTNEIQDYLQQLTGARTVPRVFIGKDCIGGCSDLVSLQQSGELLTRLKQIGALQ
In short: as §1

MDH2 = molecular target: T4, MDH2 (UniProt P40926)
T4 sequence (whole entry): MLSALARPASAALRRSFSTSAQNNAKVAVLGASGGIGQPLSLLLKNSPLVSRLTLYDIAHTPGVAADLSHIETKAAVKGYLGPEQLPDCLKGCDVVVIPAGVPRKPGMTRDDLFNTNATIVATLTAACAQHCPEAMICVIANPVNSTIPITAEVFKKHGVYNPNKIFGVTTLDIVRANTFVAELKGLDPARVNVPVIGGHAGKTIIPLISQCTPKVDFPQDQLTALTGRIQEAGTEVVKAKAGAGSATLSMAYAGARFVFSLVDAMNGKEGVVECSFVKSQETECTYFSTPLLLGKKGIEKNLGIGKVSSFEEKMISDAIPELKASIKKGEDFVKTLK
In short: as §1

TMED10 = molecular target: T5, TMED10 (UniProt P49755)
T5 sequence (whole entry): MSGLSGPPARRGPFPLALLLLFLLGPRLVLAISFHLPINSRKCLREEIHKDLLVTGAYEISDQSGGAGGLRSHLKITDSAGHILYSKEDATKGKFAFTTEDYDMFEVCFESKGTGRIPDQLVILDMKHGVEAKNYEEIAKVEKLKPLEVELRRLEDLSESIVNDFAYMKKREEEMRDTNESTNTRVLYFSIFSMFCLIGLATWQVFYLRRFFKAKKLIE
In short: as §1

UQCRFS1 = molecular target: T6, UQCRFS1 (UniProt P47985)
T6 sequence (whole entry): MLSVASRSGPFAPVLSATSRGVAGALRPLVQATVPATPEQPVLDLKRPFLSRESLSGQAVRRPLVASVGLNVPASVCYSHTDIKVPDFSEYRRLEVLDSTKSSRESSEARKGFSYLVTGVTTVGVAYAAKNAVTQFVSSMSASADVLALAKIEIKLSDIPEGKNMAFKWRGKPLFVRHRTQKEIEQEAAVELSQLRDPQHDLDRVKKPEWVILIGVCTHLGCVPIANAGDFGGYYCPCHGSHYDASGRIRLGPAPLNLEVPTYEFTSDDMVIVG
In short: as §1

`Nc1nc2c(ncn2[C@@H]2O[C@H](COP(=O)(O)OP(=O)(O)OP(=O)(O)O)[C@@H](O)[C@H]2O)c(=O)[nH]1` [guanosine triphosphate] gave an NP40-soluble protein abundance (CAMLG; concentration: 0.1mM) of 0.947 ± 0.1, an NP40-soluble protein abundance (CAMLG; concentration: 0.5mM) of 0.954 ± 0.069 and an NP40-soluble protein abundance (CAMLG; concentration: 1mM) of 0.965 ± 0.066. The NP40-soluble protein abundance (CAMLG; concentration: 2mM) was 0.999 ± 0.13, the NP40-soluble protein abundance (CAMLG; concentration: 4mM) was 0.955 ± 0.11 and the NP40-soluble protein abundance (CAMLG; concentration: 6mM) was 0.924 ± 0.1. For the same compound, the NP40-soluble protein abundance (CAMLG; concentration: 8mM) was 0.963 ± 0.053, the NP40-soluble protein abundance (CAMLG; concentration: 10mM) was 0.975 ± 0.077 and the NP40-soluble protein abundance (GALNS; concentration: 0.1mM) was 1.08 ± 0.24. For the same compound, the NP40-soluble protein abundance (GALNS; concentration: 0.5mM) was 1.13 ± 0.22, the NP40-soluble protein abundance (GALNS; concentration: 1mM) was 1.07 ± 0.28 and the NP40-soluble protein abundance (GALNS; concentration: 2mM) was 1.16 ± 0.31. For the same compound, the NP40-soluble protein abundance (GALNS; concentration: 4mM) was 1.06 ± 0.42, the NP40-soluble protein abundance (GALNS; concentration: 6mM) was 1.1 ± 0.3 and the NP40-soluble protein abundance (GALNS; concentration: 8mM) was 1 ± 0.16. For the same compound, the NP40-soluble protein abundance (GALNS; concentration: 10mM) was 1.02 ± 0.28, the NP40-soluble protein abundance (GLRX; concentration: 0.1mM) was 0.945 ± 0.083 and the NP40-soluble protein abundance (GLRX; concentration: 0.5mM) was 0.884 ± 0.025. The NP40-soluble protein abundance (GLRX; concentration: 1mM) was 1.02 ± 0.073, the NP40-soluble protein abundance (GLRX; concentration: 2mM) was 0.984 ± 0.012 and the NP40-soluble protein abundance (GLRX; concentration: 4mM) was 0.969 ± 0.058. It also gave an NP40-soluble protein abundance (GLRX; concentration: 6mM) of 0.982 ± 0.046, an NP40-soluble protein abundance (GLRX; concentration: 8mM) of 0.943 ± 0.071 and an NP40-soluble protein abundance (GLRX; concentration: 10mM) of 1.04 ± 0.059. The NP40-soluble protein abundance (MDH2; concentration: 0.1mM) was 0.902 ± 0.1, the NP40-soluble protein abundance (MDH2; concentration: 0.5mM) was 0.908 ± 0.091 and the NP40-soluble protein abundance (MDH2; concentration: 1mM) was 0.872 ± 0.1. The NP40-soluble protein abundance (MDH2; concentration: 2mM) was 0.825 ± 0.082, the NP40-soluble protein abundance (MDH2; concentration: 4mM) was 0.838 ± 0.098 and the NP40-soluble protein abundance (MDH2; concentration: 6mM) was 0.829 ± 0.074. For the same compound, the NP40-soluble protein abundance (MDH2; concentration: 8mM) was 0.828 ± 0.1, the NP40-soluble protein abundance (MDH2; concentration: 10mM) was 0.826 ± 0.09 and the NP40-soluble protein abundance (TMED10; concentration: 0.1mM) was 0.973 ± 0.045. The NP40-soluble protein abundance (TMED10; concentration: 0.5mM) was 0.989 ± 0.025, the NP40-soluble protein abundance (TMED10; concentration: 1mM) was 0.924 ± 0.045 and the NP40-soluble protein abundance (TMED10; concentration: 2mM) was 0.901 ± 0.037. For the same compound, the NP40-soluble protein abundance (TMED10; concentration: 4mM) was 0.892 ± 0.047, the NP40-soluble protein abundance (TMED10; concentration: 6mM) was 0.882 ± 0.037 and the NP40-soluble protein abundance (TMED10; concentration: 8mM) was 0.893 ± 0.047. The NP40-soluble protein abundance (TMED10; concentration: 10mM) was 0.847 ± 0.062, the NP40-soluble protein abundance (UQCRFS1; concentration: 0.1mM) was 0.971 ± 0.036 and the NP40-soluble protein abundance (UQCRFS1; concentration: 0.5mM) was 1.01 ± 0.04. It also gave an NP40-soluble protein abundance (UQCRFS1; concentration: 1mM) of 0.942 ± 0.021 and an NP40-soluble protein abundance (UQCRFS1; concentration: 2mM) of 0.907 ± 0.015.
